PMC2515640
No constants are given. Whether binding was seen depends on the method and setting. In cells and extracts the contact can be indirect.

Chains of the proteins cited; added tags and fusions are not shown.
UniProt Q14137: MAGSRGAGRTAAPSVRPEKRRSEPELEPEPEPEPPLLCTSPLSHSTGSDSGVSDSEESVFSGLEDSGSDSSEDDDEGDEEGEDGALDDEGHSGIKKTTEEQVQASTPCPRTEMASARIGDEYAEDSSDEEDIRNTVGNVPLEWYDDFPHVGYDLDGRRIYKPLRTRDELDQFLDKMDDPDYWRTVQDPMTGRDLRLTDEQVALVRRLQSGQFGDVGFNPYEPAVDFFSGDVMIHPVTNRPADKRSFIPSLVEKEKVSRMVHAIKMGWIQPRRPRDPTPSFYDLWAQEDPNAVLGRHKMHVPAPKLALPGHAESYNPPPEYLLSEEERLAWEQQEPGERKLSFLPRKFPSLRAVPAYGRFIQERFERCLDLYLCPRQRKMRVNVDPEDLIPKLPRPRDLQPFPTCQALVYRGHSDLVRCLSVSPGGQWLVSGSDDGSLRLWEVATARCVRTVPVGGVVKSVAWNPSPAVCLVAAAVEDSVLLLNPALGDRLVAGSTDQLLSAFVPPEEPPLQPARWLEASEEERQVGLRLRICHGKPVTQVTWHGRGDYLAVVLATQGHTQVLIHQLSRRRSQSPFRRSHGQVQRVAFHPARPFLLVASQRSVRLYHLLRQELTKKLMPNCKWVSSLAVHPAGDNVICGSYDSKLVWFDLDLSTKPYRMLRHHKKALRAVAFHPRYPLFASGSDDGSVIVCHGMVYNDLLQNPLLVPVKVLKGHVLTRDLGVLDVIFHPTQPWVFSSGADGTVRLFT

Target: Bop1 (human (endogenous in U2OS)) (UniProt Q14137)
Assay: co-IP; U2OS cell lysates immunoprecipitated with anti-WDR12, anti-Pes1 or anti-Bop1 antibodies or normal rat IgG; Western blot for Pes1 and WDR55; 2.5% of input loaded; carried out as described in ref. 35

B1: WDR55 (protein, UniProt Q9H6Y2 1-383)
chain: MDRTCEERPAEDGSDEEDPDSMEAPTRIRDTPEDIVLEAPASGLAFHPARDLLAAGDVDGDVFVFSYSCQEGETKELWSSGHHLKACRAVAFSEDGQKLITVSKDKAIHVLDVEQGQLERRVSKAHGAPINSLLLVDENVLATGDDTGGICLWDQRKEGPLMDMRQHEEYIADMALDPAKKLLLTASGDGCLGIFNIKRRRFELLSEPQSGDLTSVTLMKWGKKVACGSSEGTIYLFNWNGFGATSDRFALRAESIDCMVPVTESLLCTGSTDGVIRAVNILPNRVVGSVGQHTGEPVEELALSHCGRFLASSGHDQRLKFWDMAQLRAVVVDDYRRRKKKGGPLRALSSKTWSTDDFFAGLREEGEDSMAQEEKEETGDDSD
**Q.** For B1, which binding is on record?
**A.** Its binding is “no binding”.
